Measured values published in doi:10.1101/2021.08.25.457734.
These are yes or no findings as the source states them, for the method shown. Binding seen in cells or lysates may run through a third protein. Some results given as binding are weak or reduced against the parent protein; the word gives no strength.

The chains behind the UniProt entries cited, without tags or fusion partners.
UniProt P13984: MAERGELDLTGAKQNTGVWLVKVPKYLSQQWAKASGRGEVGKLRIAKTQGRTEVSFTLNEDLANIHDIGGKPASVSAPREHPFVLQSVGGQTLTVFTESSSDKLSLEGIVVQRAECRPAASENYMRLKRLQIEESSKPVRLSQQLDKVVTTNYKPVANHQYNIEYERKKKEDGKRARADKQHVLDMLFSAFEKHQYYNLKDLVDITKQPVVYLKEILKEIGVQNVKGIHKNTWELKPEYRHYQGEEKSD
UniProt P35269: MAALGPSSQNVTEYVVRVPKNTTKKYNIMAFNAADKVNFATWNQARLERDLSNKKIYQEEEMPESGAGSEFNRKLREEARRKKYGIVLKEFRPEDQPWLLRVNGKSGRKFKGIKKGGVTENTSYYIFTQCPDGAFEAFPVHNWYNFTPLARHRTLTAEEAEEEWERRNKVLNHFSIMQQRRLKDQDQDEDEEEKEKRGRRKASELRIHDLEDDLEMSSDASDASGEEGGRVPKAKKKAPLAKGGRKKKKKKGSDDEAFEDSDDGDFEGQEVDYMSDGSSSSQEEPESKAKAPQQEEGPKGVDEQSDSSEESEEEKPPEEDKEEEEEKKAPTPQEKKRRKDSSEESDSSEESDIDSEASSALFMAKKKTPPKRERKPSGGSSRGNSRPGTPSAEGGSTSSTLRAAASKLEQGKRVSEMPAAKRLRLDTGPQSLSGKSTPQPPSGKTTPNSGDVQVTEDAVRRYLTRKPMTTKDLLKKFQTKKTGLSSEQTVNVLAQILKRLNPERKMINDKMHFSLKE
UniProt P62310: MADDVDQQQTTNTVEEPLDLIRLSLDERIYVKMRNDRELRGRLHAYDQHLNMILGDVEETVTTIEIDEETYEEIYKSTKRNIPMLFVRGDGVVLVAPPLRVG
UniProt Q9H081: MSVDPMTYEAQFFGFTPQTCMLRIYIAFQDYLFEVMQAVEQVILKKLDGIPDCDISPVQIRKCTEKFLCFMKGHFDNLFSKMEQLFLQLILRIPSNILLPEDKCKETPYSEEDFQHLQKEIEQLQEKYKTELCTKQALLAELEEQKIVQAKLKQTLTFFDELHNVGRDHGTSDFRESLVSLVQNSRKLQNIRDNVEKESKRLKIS

Tests used:
Test in all cases: FRET or BRET
GTF2F2 (human) = GTF2F2 (human) (UniProt P13984)
LSM2 (human) = target: T1, LSM2 (human) (UniProt Q9Y333)
T1 sequence: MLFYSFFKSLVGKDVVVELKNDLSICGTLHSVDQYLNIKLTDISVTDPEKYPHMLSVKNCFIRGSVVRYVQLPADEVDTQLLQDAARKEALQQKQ

PMF1 (human) = target: T2, PMF1 (human) (UniProt Q6P1K2)
T2 sequence: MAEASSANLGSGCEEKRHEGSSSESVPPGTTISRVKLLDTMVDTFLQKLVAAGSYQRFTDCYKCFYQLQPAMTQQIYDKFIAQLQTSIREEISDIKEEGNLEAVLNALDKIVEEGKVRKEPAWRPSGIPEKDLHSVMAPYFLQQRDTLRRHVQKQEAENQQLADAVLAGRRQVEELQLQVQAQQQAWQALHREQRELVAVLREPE

DRAP1 (human) = target: T3, DRAP1 (human) (UniProt Q14919)
T3 sequence: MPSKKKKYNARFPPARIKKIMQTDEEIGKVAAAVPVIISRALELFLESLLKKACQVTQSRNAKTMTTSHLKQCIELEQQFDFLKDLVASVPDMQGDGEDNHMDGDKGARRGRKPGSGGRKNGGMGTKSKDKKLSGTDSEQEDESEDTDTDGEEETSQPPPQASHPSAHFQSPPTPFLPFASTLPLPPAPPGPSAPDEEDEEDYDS

BATF (human) = target: T4, BATF (human) (UniProt Q16520)
T4 sequence: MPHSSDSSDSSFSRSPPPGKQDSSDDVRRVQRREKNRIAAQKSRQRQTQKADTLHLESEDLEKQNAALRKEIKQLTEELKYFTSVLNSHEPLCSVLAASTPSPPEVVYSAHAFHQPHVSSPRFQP

For GTF2F1 (from UniProt P35269 1-517), which binding (GTF2F2 (human)) is on record?
Its binding is “binds”.

Which binding (LSM2 (human)) does the source give for LSM3 (from UniProt P62310 1-102) here?
Its binding is “binds”.

How did the binding (PMF1 (human)) turn out when MIS12 (from UniProt Q9H081 1-205) was run?
Its binding is “binds”.

B1: DR1 (protein, UniProt Q01658 1-176)
chain: MASSSGNDDDLTIPRAAINKMIKETLPNVRVANDARELVVNCCTEFIHLISSEANEICNKSEKKTISPEHVIQALESLGFGSYISEVKEVLQECKTVALKRRKASSRLENLGIPEEELLRQQQELFAKARQQQAELAQQEWLQMQQAAQQAQLAAASASASNQAGSSQDEEDDDDI
How did the binding (DRAP1 (human)) turn out when B1 was run?
The binding was “binds”.

B2: JUNB (protein, UniProt P17275 1-347)
chain: MCTKMEQPFYHDDSYTATGYGRAPGGLSLHDYKLLKPSLAVNLADPYRSLKAPGARGPGPEGGGGGSYFSGQGSDTGASLKLASSELERLIVPNSNGVITTTPTPPGQYFYPRGGGSGGGAGGAGGGVTEEQEGFADGFVKALDDLHKMNHVTPPNVSLGATGGPPAGPGGVYAGPEPPPVYTNLSSYSPASASSGGAGAAVGTGSSYPTTTISYLPHAPPFAGGHPAQLGLGRGASTFKEEPQTVPEARSRDATPPVSPINMEDQERIKVERKRLRNRLAATKCRKRKLERIARLEDKVKTLKAENAGLSSTAGLLREQVAQLKQKVMTHVSNGCQLLLGVKGHAF
How did the binding (BATF (human)) turn out when B2 was run?
Its binding is “binds”.
